Experimental data reported in doi:10.1101/2025.05.13.653842.
No constants are given. Whether binding was seen depends on the method and setting.

Assays:
[1] = biological target: T1, Escherichia coli RecA recombinase, as RecA-ssDNA filament (E. coli), P0A7G6; assay: optical tweezers; details: remark: other sources report otherwise
T1 chain: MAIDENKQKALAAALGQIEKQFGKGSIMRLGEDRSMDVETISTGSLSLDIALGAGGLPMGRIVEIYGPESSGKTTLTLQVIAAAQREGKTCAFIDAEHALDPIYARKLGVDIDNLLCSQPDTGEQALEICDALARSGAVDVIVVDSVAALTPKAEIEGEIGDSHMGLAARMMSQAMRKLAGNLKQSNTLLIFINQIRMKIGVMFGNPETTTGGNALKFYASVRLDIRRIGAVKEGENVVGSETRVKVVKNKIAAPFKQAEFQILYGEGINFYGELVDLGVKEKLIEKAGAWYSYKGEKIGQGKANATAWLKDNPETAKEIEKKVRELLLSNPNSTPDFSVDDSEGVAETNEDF

[2] = biological target: T1, Escherichia coli RecA recombinase, as …; assay: optical tweezers; details: remark: other sources report otherwise

binding [1]: no binding (tested: 500 nM)
binding [2]: no binding (tested: 500 nM)
B1: Escherichia coli SMC-like RecN protein, P05824 1-553 (protein)
chain: MLAQLTISNFAIVRELEIDFHSGMTVITGETGAGKSIAIDALGLCLGGRAEADMVRTGAARADLCARFSLKDTPAALRWLEENQLEDGHECLLRRVISSDGRSRGFINGTAVPLSQLRELGQLLIQIHGQHAHQLLTKPEHQKFLLDGYANETSLLQEMTARYQLWHQSCRDLAHHQQLSQERAARAELLQYQLKELNEFNPQPGEFEQIDEEYKRLANSGQLLTTSQNALALMADGEDANLQSQLYTAKQLVSELIGMDSKLSGVLDMLEEATIQIAEASDELRHYCDRLDLDPNRLFELEQRISKQISLARKHHVSPEALPQYYQSLLEEQQQLDDQADSQETLALAVTKHHQQALEIARALHQQRQQYAEELAQLITDSMHALSMPHGQFTIDVKFDEHHLGADGADRIEFRVTTNPGQPMQPIAKVASGGELSRIALAIQVITARKMETPALIFDEVDVGISGPTAAVVGKLLRQLGESTQVMCVTHLPQVAGCGHQHYFVSKETDGAMTETHMQSLNKKARLQELARLLGGSEVTRNTLANAKELLAA
